Data reported in article PMC12711971.

Sequences of proteins named here, by UniProt entry; tags and fusion partners are left off. A change or cut given only in a name is not applied to a line headed by its entry.
UniProt P10144: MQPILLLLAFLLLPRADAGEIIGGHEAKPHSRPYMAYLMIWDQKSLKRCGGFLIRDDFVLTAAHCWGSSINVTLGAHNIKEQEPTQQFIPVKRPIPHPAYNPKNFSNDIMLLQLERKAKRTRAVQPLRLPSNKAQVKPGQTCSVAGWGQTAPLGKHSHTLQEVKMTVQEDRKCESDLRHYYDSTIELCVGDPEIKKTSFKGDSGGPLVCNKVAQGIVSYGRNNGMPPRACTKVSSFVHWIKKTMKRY

Target: T1, GSDMC (UniProt Q9BYG8)
T1 sequence: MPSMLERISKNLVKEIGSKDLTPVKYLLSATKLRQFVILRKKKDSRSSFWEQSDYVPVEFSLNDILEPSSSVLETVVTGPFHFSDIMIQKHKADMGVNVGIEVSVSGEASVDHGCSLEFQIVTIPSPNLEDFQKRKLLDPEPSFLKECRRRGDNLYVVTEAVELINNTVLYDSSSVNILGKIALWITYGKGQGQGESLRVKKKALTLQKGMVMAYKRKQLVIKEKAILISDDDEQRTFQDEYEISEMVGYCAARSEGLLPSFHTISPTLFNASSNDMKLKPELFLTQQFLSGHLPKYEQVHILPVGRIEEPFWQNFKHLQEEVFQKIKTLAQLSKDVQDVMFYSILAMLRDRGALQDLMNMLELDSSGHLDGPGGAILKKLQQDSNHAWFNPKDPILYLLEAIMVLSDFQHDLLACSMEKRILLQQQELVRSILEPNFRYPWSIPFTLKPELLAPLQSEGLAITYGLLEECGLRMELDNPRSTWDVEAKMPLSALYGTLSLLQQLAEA
Test: proximity labelling; TurboID; A375 cells overexpressing GZMB and GSDMC, DdBIC (20 uM, 7 h), 100 uM biotin 10 min at 37 C, streptavidin magnetic beads, western blot

Substance: granzyme B (from UniProt P10144) (enzyme)
- binding: binds

No constants are given. Whether binding was seen depends on the method and setting. Binding seen in cells or lysates may run through a third protein. These calls come from enrichment with a bait or labelling near it, and not all partners need be listed.
